Measured values reported in PubChem BioAssay AID587 (National Center for Advancing Translational Sciences (NCATS), 2007).
Among all 59,000 compounds or so, about 35 (0.06%) were called active. This list was built around the results that the source calls inconclusive (neither active nor inactive); the mix of calls is not that of the screen. Rule as the data show it: active = max dye-equivalent concentration above about 10 nM; inconclusive = between about 1.1 nM and that limit; inactive = weaker than that.

Test: qHTS Assay for Spectroscopic Profiling in Texas Red Spectral Region
Conditions: Compound fluorescence, Texas Red channel, 547/618 nm; hits give high values
Procedure, shortened: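 Dye-equivalent concentrations come from scaling compound signal (ex 547, em 618 nm) to six Texas Red standard concentrations run on every plate, after 15 min room-temperature incubation in pH 8.0 Tris (100 mM).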
For CCCS(=O)(=O)N1CCC(C(=O)NC2CCC(C)CC2)CC1 (stereo not drawn), the max dye-equivalent concentration was inconclusive: 1.3 nM. For CCOC(=O)C(NC(=O)Nc1ccccc1)(OCC)C(F)(F)F (stereo not drawn), the max dye-equivalent concentration was “inactive”. In the case of CCCOc1ccc2c(C)c(CC(=O)OC)c(=O)oc2c1, the max dye-equivalent concentration is reported as inconclusive: 1.4 nM. For CCCCN(CC)Cc1c(C)[nH]c2ccccc2c1=O, the max dye-equivalent concentration was inconclusive: 1.1 nM. With Fc1ccccc1N1CCN(Cc2nc(-c3ccc(Cl)cc3Cl)no2)CC1 the max dye-equivalent concentration was inconclusive: 2.4 nM. With O=C(CN1C(=O)C2C3C=CC(C3)C2C1=O)N1CC=C(c2ccccc2)CC1 (stereo not drawn) the max dye-equivalent concentration was inconclusive: 1.1 nM. In the case of C[C@]1(c2ccccc2)O[C@@H]2C[C@@H]3[C@@H]4CCC5=CC(=O)C=C[C@@]5(C)[C@]4(F)[C@H](O)C[C@]3(C)[C@@]2(C(=O)CO)O1, the max dye-equivalent concentration is reported as “inactive”. With COc1cc(C(=O)NCc2ccc(-c3nc4ccccc4o3)cc2)cc(OC)c1OC the max dye-equivalent concentration was inconclusive: 1.7 nM. In the case of O=C(COC(=O)CNS(=O)(=O)/C=C/c1ccccc1)NC1CCS(=O)(=O)C1 (stereo not drawn), the max dye-equivalent concentration is reported as inconclusive: 1.6 nM. For COc1ccc(-c2nc3cnc(OC)nc3n(C3CC3)c2=O)cc1, the max dye-equivalent concentration was “inactive”. With Cn1c(=O)oc2cc(S(=O)(=O)NCc3ccncc3)ccc21 the max dye-equivalent concentration was inconclusive: 1.6 nM. For CCCCNC(=O)c1cc2c(=O)n3cccc(C)c3nc2n(Cc2ccncc2)c1=N, the max dye-equivalent concentration was inconclusive: 1.7 nM. In the case of COC(=O)c1c(-c2cc(OC)c(OC)c(OC)c2)c2ccnc(OCc3ncccn3)c2c(=O)n1Cc1ccnc(C)c1, the max dye-equivalent concentration is reported as inconclusive: 1.4 nM. With O=C(c1ccco1)N1CCN(Cc2nnnn2CCc2ccccc2)CC1 the max dye-equivalent concentration was inconclusive: 1.2 nM. With CCN1CCN(c2ccc(NC(=O)COc3ccccc3Cl)cc2)CC1 the max dye-equivalent concentration was inconclusive: 1.6 nM. For O=C(Nc1ccccc1)N1CC[C@@]2(CCCN(C(=O)c3cnccn3)C2)C1, the max dye-equivalent concentration was “inactive”. With COc1ccc(CC(=O)Nc2c3c(nn2-c2cccc(Cl)c2)CS(=O)(=O)C3)cc1 the max dye-equivalent concentration was inconclusive: 1.5 nM. In the case of CC1(C)[C@@H]2CC[C@@]1(CS(=O)(=O)Nc1ccccc1)C(=O)C2, the max dye-equivalent concentration is reported as “inactive”. With COc1cccc(NC(=O)CCS(=O)(=O)c2cccs2)c1 the max dye-equivalent concentration was inconclusive: 1.5 nM. In the case of CCC(=O)N1CCCc2cc(S(=O)(=O)N3CCCc4ccccc43)ccc21, the max dye-equivalent concentration is reported as inconclusive: 1.3 nM. For Cc1noc(C)c1CN1C(=O)NC(Cc2ccccc2)(Cc2ccccc2)C1=O, the max dye-equivalent concentration was inconclusive: 2.3 nM. With O=C(c1cccs1)N1CCn2c1nc1ccccc12 the max dye-equivalent concentration was inconclusive: 1.2 nM. In the case of O=C(CN(C(=O)CNS(=O)(=O)c1ccccc1)c1ccc2c(c1)OCCO2)NCc1ccco1, the max dye-equivalent concentration is reported as inconclusive: 1.2 nM. With Cc1cc(NC(=O)Cn2nc3c(cc2=O)CCCC3)ccc1Br the max dye-equivalent concentration was inconclusive: 2.4 nM. For CCOC(=O)c1[nH]c(C)c(C(=O)N2CCN(c3ccccc3)CC2)c1C, the max dye-equivalent concentration was inconclusive: 1.2 nM. In the case of COc1cc(NC(=O)c2ccco2)c(OC)cc1NC(=O)Nc1cccc(Cl)c1, the max dye-equivalent concentration is reported as inconclusive: 1.3 nM. With CCn1c(SCC(=O)Nc2nc(C)cs2)nnc1-c1cccnc1 the max dye-equivalent concentration was inconclusive: 1.1 nM. In the case of NC1=NC(c2ccc(Br)cc2)n2c(nc3ccccc32)N1 (stereo not drawn), the max dye-equivalent concentration is reported as inconclusive: 1.1 nM. With Cc1ccc(NC(=O)C2CCN(S(=O)(=O)c3cccc4nonc34)CC2)nc1 the max dye-equivalent concentration was inconclusive: 1.1 nM. With CCOC(=O)N1CCN(C(=O)CSCC(=O)Nc2nc(-c3ccc(OC)cc3)cs2)CC1 the max dye-equivalent concentration was inconclusive: 1.1 nM. In the case of COc1ccc(CN(C(=O)CSc2nnc(-c3ccc(F)cc3)o2)c2ccc(F)cc2)cc1, the max dye-equivalent concentration is reported as inconclusive: 1.5 nM. With COC(=O)c1ccsc1NC(=O)CSc1nnnn1Cc1ccccc1 the max dye-equivalent concentration was inconclusive: 1.1 nM. In the case of CCc1ccccc1NC(=O)CSc1nnc([C@@H](NC(=O)OC(C)(C)C)C(C)C)o1, the max dye-equivalent concentration is reported as “inactive”. For O=C(CC1CC2CCC1C2)NCc1cccs1 (stereo not drawn), the max dye-equivalent concentration was inconclusive: 3.3 nM. In the case of N#Cc1c(-c2ccccc2)nc(N2CCOCC2)[nH]c1=O, the max dye-equivalent concentration is reported as inconclusive: 1.1 nM. With c1ccc(Nc2nc3ccccc3[nH]2)nc1 the max dye-equivalent concentration was inconclusive: 1.3 nM. In the case of Nc1c(C(=O)c2ccc(F)cc2)oc2ccccc12, the max dye-equivalent concentration is reported as inconclusive: 1.3 nM. With CC(C)OC(=O)CSc1nnc(-c2cccnc2)n1N the max dye-equivalent concentration was inconclusive: 1.3 nM. In the case of CC(C)(C)NC(=O)C(c1cccs1)N(CC1CCCO1)C(=O)Cn1nnc(-c2cccs2)n1 (stereo not drawn), the max dye-equivalent concentration is reported as inconclusive: 1.3 nM. For Cc1cc(C)c(S(=O)(=O)N(CC(=O)N2CCOCC2)C2CCCCC2)c(C)c1, the max dye-equivalent concentration was “inactive”. With Cc1cc2oc(=O)cc(CN3CCN(Cc4ccc5c(c4)OCO5)CC3)c2cc1C the max dye-equivalent concentration was inconclusive: 1.4 nM. In the case of CCCC(=O)Nc1ccc2c(c1)nc(CN1CCCCC1)n2C, the max dye-equivalent concentration is reported as inconclusive: 2.1 nM. For O=S(=O)(NCc1ccco1)c1cccc(S(=O)(=O)N2CCOCC2)c1, the max dye-equivalent concentration was inconclusive: 1.1 nM. For CCC(C)(C)C(=O)O[C@@H]1C[C@H](C)C=C2C=C[C@H](C)[C@@H](CC[C@H]3C[C@@H](O)CC(=O)O3)[C@H]21, the max dye-equivalent concentration was “inactive”. In the case of CCOc1ccccc1-c1nc(-c2ccc(C)nc2OC)no1, the max dye-equivalent concentration is reported as inconclusive: 1.1 nM. With COc1cc(-c2nnc(SCc3cc(=O)oc4cc(C)ccc34)o2)cc(OC)c1OC the max dye-equivalent concentration was inconclusive: 2 nM. With CCCn1c(SCC(=O)Nc2nc(C)cs2)nnc1-c1cccnc1 the max dye-equivalent concentration was inconclusive: 2.7 nM. With COc1c(F)c(F)c(-c2csc(N)n2)c(F)c1F the max dye-equivalent concentration was “inactive”. For CCOC(=O)c1c(C)n(C)c2ccc(OC)c(NC(=O)CCN3CCSCC3)c12, the max dye-equivalent concentration was “inactive”. With COCc1[nH]nc2c1C(c1ccsc1)C(C#N)=C(N)O2 (stereo not drawn) the max dye-equivalent concentration was inconclusive: 2 nM. In the case of COc1ccc(N/C(C)=C2/C(=O)C(=O)N(CCO)C2c2ccc(Br)cc2)cc1 (stereo not drawn), the max dye-equivalent concentration is reported as inconclusive: 1.3 nM. With N[C@@H](CO)C(=O)NNCc1ccc(O)c(O)c1O the max dye-equivalent concentration was “inactive”. In the case of CC[C@@H]1OC(=O)[C@@H](C)[C@H](O[C@@H]2C[C@@](C)(OC)[C@@H](O)[C@H](C)O2)[C@H](C)[C@H](O[C@@H]2O[C@@H](C)C[C@@H](N(C)C)[C@H]2O)[C@@](C)(O)C[C@H](C)C(=O)[C@@H](C)[C@H](O)[C@@]1(C)O, the max dye-equivalent concentration is reported as “inactive”. For CC(C)Cn1c(SCC(=O)NC(=O)NC2CCCC2)nc2ccccc21, the max dye-equivalent concentration was inconclusive: 1.8 nM. With COc1ccc(-n2c(SCC(=O)NCc3cccs3)nnc2-c2ccoc2C)cc1 the max dye-equivalent concentration was “inactive”. For c1ccc2[nH]c(-c3cscn3)nc2c1, the max dye-equivalent concentration was inconclusive: 1.5 nM. In the case of CC(C)C1C(C#N)=C(N)Oc2n[nH]c(-c3ccccc3)c21 (stereo not drawn), the max dye-equivalent concentration is reported as inconclusive: 2 nM. With CCCN(CCC)CCNC(=O)Cn1cnc2sc(C)c(S(=O)(=O)N3CCOCC3)c2c1=O the max dye-equivalent concentration was inconclusive: 1.4 nM. With Cc1ccc(CCNC(=O)c2coc3nc4ccccc4nc23)cc1 the max dye-equivalent concentration was inconclusive: 1.2 nM. For Cc1noc(C(=O)Nc2ccccc2C(F)(F)F)c1Cl, the max dye-equivalent concentration was inconclusive: 1.2 nM. For O=C(N1CCCC1)n1c(Cc2ccccc2)nc2ccccc21, the max dye-equivalent concentration was “inactive”. With O=C(CCN1CCN(c2ccc(Cl)cc2)CC1)Nc1ccccc1F the max dye-equivalent concentration was inconclusive: 1.1 nM. For COc1ccc([C@@H](Nc2ncccn2)c2cc3c(cc2O)OCO3)cc1, the max dye-equivalent concentration was “inactive”. With CN[C@H]1[C@@H](O)[C@@H](NC)[C@@H]2O[C@@]3(O)C(=O)C[C@@H](C)O[C@H]3O[C@H]2[C@H]1O the max dye-equivalent concentration was inconclusive: 1.6 nM. In the case of COc1ccccc1NC(=O)Nc1ccnn1C1CCCCC1, the max dye-equivalent concentration is reported as inconclusive: 1.6 nM. For COC(=O)N1CCC2(CCCN(c3ccncc3)C2)CC1, the max dye-equivalent concentration was “inactive”. With Cn1c(/N=C/c2c[nH]c3ccccc23)nc2ccccc21 the max dye-equivalent concentration was inconclusive: 2 nM. For CCC(=O)N1CCc2cc(S(=O)(=O)NCCC(=O)N3CCN(c4ccccn4)CC3)ccc21, the max dye-equivalent concentration was inconclusive: 1.3 nM. In the case of COc1ccc(NC(=O)CCn2nc(C)cc2C)cc1, the max dye-equivalent concentration is reported as inconclusive: 1.4 nM. In the case of COC(=O)c1ccccc1S(=O)(=O)N(Cc1ccco1)Cc1cc2cc(OC)ccc2[nH]c1=O, the max dye-equivalent concentration is reported as inconclusive: 2.7 nM. With CCN(CC)S(=O)(=O)c1ccc2[nH]cc(C(=O)NCCC3=CCCCC3)c(=O)c2c1 the max dye-equivalent concentration was inconclusive: 1.5 nM. For Fc1cc2nccnc2cc1N1CCSCC1, the max dye-equivalent concentration was inconclusive: 1.2 nM. With O=S(=O)(c1ccccc1)N(C1=NCCS1)S(=O)(=O)c1ccccc1 the max dye-equivalent concentration was inconclusive: 1.4 nM. In the case of O=S1(=O)N=C2CCCN2C(c2ccc(F)cc2)N1 (stereo not drawn), the max dye-equivalent concentration is reported as inconclusive: 1.7 nM. With COC(=O)CC[C@@H](C)[C@H]1CC[C@H]2[C@H]3CC[C@H]4C[C@@H]5CC[C@@]4(C)C3(O5)[C@@H](Br)[C@@H](Br)[C@@]12C the max dye-equivalent concentration was “inactive”. With CCCOc1ccc(N2C(=O)CC(N3CCC(c4nncn4CC)CC3)C2=O)cc1 (stereo not drawn) the max dye-equivalent concentration was inconclusive: 1.6 nM. In the case of COCCn1c(=O)c(-c2cccc(F)c2)nc2cncnc21, the max dye-equivalent concentration is reported as “inactive”. With Cc1ccc2nc(-c3cccc(NC(=O)c4ccco4)c3)[nH]c2c1 the max dye-equivalent concentration was inconclusive: 2.5 nM. For O=C(CCC(=O)N1CCCC1)Nc1nnc(C2CCCCC2)s1, the max dye-equivalent concentration was inconclusive: 1.1 nM. For CCCOc1ccc(CN(CCO)CCO)cc1C(=O)OC, the max dye-equivalent concentration was inconclusive: 1.3 nM. For Cc1cc(C)nc(SC(C)C(=O)Nc2ccc(S(N)(=O)=O)cc2)n1 (stereo not drawn), the max dye-equivalent concentration was inconclusive: 1.1 nM. With CC(=O)c1c(C)n(-c2ccccc2)c2ccc(OCC(O)CN3CCOCC3)cc12 (stereo not drawn) the max dye-equivalent concentration was inconclusive: 1.6 nM. For Cc1ccc(C)c(N2CCN(C(=O)c3ccc(Cn4c(=O)[nH]c5ccccc5c4=O)cc3)CC2)c1, the max dye-equivalent concentration was inconclusive: 1.1 nM.
